Results reported in patent US20120046305A1.

Protein sequences, listed by entry. Tags and fused reporters are not part of them.
UniProt O75762, whole entry: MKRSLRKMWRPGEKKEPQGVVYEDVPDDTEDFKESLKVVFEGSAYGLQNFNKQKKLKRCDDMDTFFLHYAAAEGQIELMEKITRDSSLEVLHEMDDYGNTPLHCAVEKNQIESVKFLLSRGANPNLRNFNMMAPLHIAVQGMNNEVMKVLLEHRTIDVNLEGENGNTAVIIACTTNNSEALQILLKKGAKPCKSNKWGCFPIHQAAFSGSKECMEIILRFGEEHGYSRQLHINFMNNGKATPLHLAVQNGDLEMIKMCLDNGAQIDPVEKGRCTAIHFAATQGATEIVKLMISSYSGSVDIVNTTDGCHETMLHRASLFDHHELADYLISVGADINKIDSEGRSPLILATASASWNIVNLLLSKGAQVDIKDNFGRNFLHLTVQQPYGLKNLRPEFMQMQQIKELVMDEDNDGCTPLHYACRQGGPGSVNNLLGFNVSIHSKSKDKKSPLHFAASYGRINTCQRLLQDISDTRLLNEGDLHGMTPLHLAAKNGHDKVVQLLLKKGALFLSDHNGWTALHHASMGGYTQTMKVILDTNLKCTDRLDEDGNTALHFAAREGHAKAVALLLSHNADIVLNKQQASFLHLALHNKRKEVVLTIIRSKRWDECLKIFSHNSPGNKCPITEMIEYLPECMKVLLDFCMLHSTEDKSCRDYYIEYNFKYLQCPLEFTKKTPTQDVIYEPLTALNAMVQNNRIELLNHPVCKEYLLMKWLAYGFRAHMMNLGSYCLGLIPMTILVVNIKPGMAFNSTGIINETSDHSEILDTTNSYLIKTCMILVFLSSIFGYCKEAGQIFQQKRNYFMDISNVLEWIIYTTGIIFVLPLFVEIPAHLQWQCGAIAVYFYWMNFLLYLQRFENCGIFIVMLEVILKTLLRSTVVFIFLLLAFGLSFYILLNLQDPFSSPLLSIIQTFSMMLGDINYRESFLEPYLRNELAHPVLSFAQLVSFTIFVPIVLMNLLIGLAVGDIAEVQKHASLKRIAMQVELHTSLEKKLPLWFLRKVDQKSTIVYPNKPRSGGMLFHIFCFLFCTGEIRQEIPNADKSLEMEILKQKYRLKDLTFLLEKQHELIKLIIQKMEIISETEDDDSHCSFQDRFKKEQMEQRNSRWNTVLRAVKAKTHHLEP

Target: TRPA1 channel (Homo sapiens, UniProt O75762)
Experiment: Patch clamp experiments (perforated patch, AITC-activated TRPA1 current)
Conditions: HEK293/TREx cells expressing TRPA1, current activated by 5 μM AITC
Source text: Patch clamp experiments permit the detection of currents through the TRPA1 channel in the cell line described above. To permit recording of current at a stable level and prevent the “rundown” observed by other labs, it is necessary to use the perforated patch technique, which prevents dialysis of the cytoplasm with the pipette solution. In normal whole-cell patch clamp recordings, a glass electrode is brought into contact with a single cell and a high-resistance (gigaohm) seal is established with the cell membrane. The membrane is then ruptured to achieve the whole-cell configuration, permitting control of the voltage of the cell membrane and measurement of currents flowing across the membrane using the amplifier attached to the electrode and resulting in the replacement of cytoplasm with the pipette solution. In contrast, in the perforated patch mode, an antibiotic, amphotericin, is present in the pipette solution and diffuses into contact with the cell after the seal is achieved, over the course of several minutes. The amphotericin forms ion-permeable pores in the membrane under the pipette, permitting passage of some ions but maintaining most native cytosolic components. A perfusion system permits control of the extracellular solution, including the addition of blockers and activators of the current. The current can be activated by addition of 5 μM AITC to the solution.
TRPA1 cells were induced 20-48 hours, removed from growth plates, and replated at low density (to attain good single-cell physical separation) on glass coverslips for measurement. In some cases, cells were grown in low density overnight on glass coverslips. Patch clamp recordings were made in the whole-cell mode with a holding potential of −40 mV. Every 5 seconds, a voltage ramp was applied from −120 to +100 mV, 400 ms in duration. Currents elicited were quantified at −80 mV and +80 mV. The internal solution consisted of 140 mM cesium aspartate, 10 mM EGTA, 2.2 mM CaCl2, 2.08 mM MgCl2 and 10 mM HEPES, pH 7.2, with 50 nM calculated free Ca^2+ and 60 mg/ml amphotericin added immediately prior to experiments. The external solution consisted of 150 mM NaCl, 4.5 mM KCl, 3 mM MgCl2, 10 mM HEPES, 10 mM glutamine, 1 mM EGTA, pH 7.4. Upon addition of AITC, TRPA1 current was induced only in TRPA1-expressing cells and not in parental HEK293 TREx cells. Removal of the AITC stimulus causes most of the current to go away. Potential blockers were tested for ability to block both inward and outward currents in the continued presence of AITC.
IC50 of compounds was estimated by testing each compound at 5 μM and 500 nM. […] IC50 for compounds between 500 nM and 5 μM was similarly estimated. Compounds blocking 50% or more at 500 nM are retested at multiple concentrations, and the % block at each is fitted by standard equations to determine IC50 accurately using a 5-6 point concentration/response experiment. Except where indicated, the IC50 values presented in Tables 1, 2, 3, and 4 were obtained from patch clamp experiments.

[1] = read-out: activity as measured in the patch clamp assay (IC50), Table 3, Table 3 compounds
[2] = read-out: activity as measured in the patch clamp assay (IC50), Table 1, Table 1 compounds

| SMILES | IC50 [1] [µM] | IC50 [2] [µM] |
| --- | --- | --- |
| CCOc1ccc(-c2csc(NC(=O)Cn3cnc4c3c(=O)n(C)c(=O)n4C)n2)cc1 | < 1 |  |
| Cn1c(=O)c2c(ncn2CC(=O)Nc2nc(-c3ccc(C4CCCCC4)cc3)cs2)n(C)c1=O | < 1 |  |
| Cn1c(=O)c2c(ncn2CC(=O)Nc2nc(-c3ccc4ccccc4c3)cs2)n(C)c1=O | < 1 |  |
| Cn1c(=O)c2c(ncn2CC(=O)Nc2nc(-c3ccc(F)c(F)c3)cs2)n(C)c1=O | < 1 |  |
| CC(C)c1ccc(-c2csc(NC(=O)Cn3cnc4c3c(=O)n(C)c(=O)n4C)n2)cc1 | < 1 | > 10 |
| Cc1ccc(NC(=O)Cn2c(Cl)nc3c2c(=O)n(C)c(=O)n3C)cc1 | < 1 |  |
| Cn1c(=O)c2c(ncn2CC(=O)Nc2nc(-c3ccc(C(C)(C)C)cc3)cs2)n(C)c1=O | < 1 | 1 to 10 |
| Cc1ccc(-c2csc(NC(=O)Cn3cnc4c3c(=O)n(C)c(=O)n4C)n2)o1 | 1 to 10 |  |
| Cn1c(=O)c2c(ncn2CC(=O)Nc2nc(-c3ccccn3)cs2)n(C)c1=O | 1 to 10 |  |
| Cn1c(=O)c2c(ncn2CC(=O)Nc2nc(-c3ccccc3)c(-c3ccccc3)s2)n(C)c1=O | < 1 | 1 to 10 |
| Cn1c(=O)c2c(ncn2CC(=O)Nc2nc(-c3ccc(Cl)cc3)cs2)n(C)c1=O | < 1 |  |
| Cn1c(=O)c2c(ncn2CC(=O)Nc2nnc(-c3ccc(Cl)cc3)s2)n(C)c1=O | < 1 |  |
| Cc1ccc(-c2csc(NC(=O)Cn3cnc4c3c(=O)n(C)c(=O)n4C)n2)cc1 | < 1 |  |

Read-outs that look alike come from different tables or passages of the source. The match of structure and compound is tentative.
